This experiment concerns the target T1, recombinant soluble human L-selectin (human, UniProt P14151 39-332).
T1 construct: extracellular domain; The residue numbers 1-279 count on the mature protein, not on the precursor
T1 sequence (looked up): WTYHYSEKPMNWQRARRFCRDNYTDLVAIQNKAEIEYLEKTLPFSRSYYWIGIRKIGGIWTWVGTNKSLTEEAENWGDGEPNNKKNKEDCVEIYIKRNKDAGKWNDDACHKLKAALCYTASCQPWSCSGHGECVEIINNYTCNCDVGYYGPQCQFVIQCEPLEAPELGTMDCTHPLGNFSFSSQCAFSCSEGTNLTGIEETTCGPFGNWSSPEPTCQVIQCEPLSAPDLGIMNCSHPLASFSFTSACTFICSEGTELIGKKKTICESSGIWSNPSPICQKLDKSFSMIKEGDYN
As to the kind of experiment: ELISA on coated soluble human L-selectin; antibody in culture supernatant. Background: An ELISA detects its analyte on a solid surface through an enzyme-linked reagent.

These are yes or no findings as the source states them, for the method shown. Some entries that bind do so weakly or less than the wild type.

B1: chicken-human chimeric anti-L-selectin antibody D3 (antibody, V domains shown)
VH: AVTLDESGGGLQTPGGALSLVCRASGFSIGSYNMHWVRQAPGKGLEWVAGISGAGSRTAWYGAAVKGRATISRDNGQSTVRLQLNNLRAEDTGTYYCAKDYGGSGSPWYGWGAASWIDAWGHGTEVIVSS
VL: ALTQPASVSANPGETVKITCSGGSYYGWYQQKSPGSAPVTVIYDNDKRPSDIPSRFSGSKSGSTGTLTITGVQAEDEAVYFCGSADSAYVGIFGAGTTLTVL
notes: Transiently expressed in 293-H cells; also called ChD3; chimeric D3
In the case of B1, the binding result is on record as “binds”.

B2: humanized anti-L-selectin antibody D3 (antibody, V domains shown)
VH: EVQLLESGGGLVQPGGSLRLSCAASGFSIGSYNMHWVRQAPGKGLEWVAGISGAGSRTAWYGAAVKGRATISRDNAKNTVYLQMNSLRAEDTAVYYCAKDYGGSGSPWYGWGAASWIDAWGQGTLVTVSS
VL: SSELTQDPAVSVALGQTVRITCSGGSYYGWYQQKPGQAPVTVIYDNDKRPSDIPSRFSGSKSGSTGSLTITGAQAEDEADYYCGSADSAYVGIFGGGTKLTVL
notes: Transiently expressed in 293-H cells; also called HuD3; humanized D3
On to B2, for which the binding entry is reported as “binds”.
